{
  "source": "patent US20150276750",
  "target": "T1, CD30 (TNFRSF8) (UniProt P28908)",
  "T1 sequence (looked up, limits assumed)": "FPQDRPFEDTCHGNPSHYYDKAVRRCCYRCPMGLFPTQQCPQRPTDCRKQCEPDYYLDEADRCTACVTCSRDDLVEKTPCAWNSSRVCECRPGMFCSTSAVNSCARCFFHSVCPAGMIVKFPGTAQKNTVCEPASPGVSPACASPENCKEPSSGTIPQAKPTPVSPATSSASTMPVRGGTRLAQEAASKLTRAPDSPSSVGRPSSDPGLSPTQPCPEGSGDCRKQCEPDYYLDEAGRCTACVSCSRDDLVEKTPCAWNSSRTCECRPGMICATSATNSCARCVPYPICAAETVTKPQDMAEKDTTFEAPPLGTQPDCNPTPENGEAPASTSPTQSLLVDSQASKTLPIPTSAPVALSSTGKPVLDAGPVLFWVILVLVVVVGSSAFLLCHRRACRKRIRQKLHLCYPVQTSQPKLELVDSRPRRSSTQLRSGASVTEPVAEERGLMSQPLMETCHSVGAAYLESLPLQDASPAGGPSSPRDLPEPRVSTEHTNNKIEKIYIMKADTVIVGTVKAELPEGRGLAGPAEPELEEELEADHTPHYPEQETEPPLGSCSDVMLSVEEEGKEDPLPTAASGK",
  "assay": "flow cytometry",
  "conditions": "Cy5.5 probe stains CD30+ lymphoma cells, not CD30-negative control lymphoma cells (U937); microscopy staining down to 0.3 nM; CD30-negative cells serve as control; protein on the cell surface; protein details: native on Karpas 299 lymphoma cells (ATCC); label: Cy5.5, or Cy3 (5') with BHQ2 (3'), or 5' biotin",
  "note": "Where cells or extracts were used, other partners may take part. Where a protein sequence is shown, tags need not be part of it.",
  "data": [
    {"sequence": "GAUUCGUAUGGGUGGGAUCGGGAAGGGCUACGAACACCG [CD30 RNA aptamer probe]", "values": [
      {"measurement": "binding result", "value": "binds"}
    ]}
  ]
}
